Assay results reported in paper PMC10437088.
These are yes or no findings as the source states them, for the method shown. In cells and extracts the contact can be indirect. Some binding calls cover weakened binding; strength is not graded here.

Sequences of proteins named here, by UniProt entry; tags and fusion partners are left off.
UniProt Q61025: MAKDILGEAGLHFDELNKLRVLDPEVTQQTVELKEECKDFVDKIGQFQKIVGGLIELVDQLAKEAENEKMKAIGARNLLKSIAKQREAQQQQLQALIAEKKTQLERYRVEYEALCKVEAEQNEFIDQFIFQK

T1: CABCOCO1 as used in the co-IP experiments of Supplementary Fig. 8A, B and D (mouse) (UniProt Q8CDT7)
T1 sequence: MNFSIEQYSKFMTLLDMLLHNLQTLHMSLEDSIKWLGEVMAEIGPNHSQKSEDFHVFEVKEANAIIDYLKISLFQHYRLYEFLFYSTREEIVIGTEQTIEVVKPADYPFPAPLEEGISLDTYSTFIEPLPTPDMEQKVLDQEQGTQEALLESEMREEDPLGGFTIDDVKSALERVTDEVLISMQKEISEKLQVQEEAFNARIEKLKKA

B1: radial spoke head 1 homolog (RSPH1) (protein, UniProt Q8VIG3 1-301)
chain: MSDLGSEELEEEGENDLGEYEGERNEVGERHGHGKARLPNGDTYEGSYEFGKRHGQGTYKFKNGARYTGDYVKNKKHGQGTFIYPDGSRYEGEWADDQRHGQGVYYYVNNDTYTGEWFNHQRHGQGTYLYAETGSKYVGTWVHGQQEGAAELIHLNHRYQGKFMNKNPVGPGKYVFDIGCEQHGEYRLTDTERGEEEEEEETLVNIVPKWKALNITELALWTPTLSEEQPPPEGQGQEEPQGLTGVGDPSEDIQAEGFEGELEPRGADEDVDTFRQESQENSYDIDQGNLNFDEEPSDLQD

Target: T1, CABCOCO1 as used in the co-IP experiments of Supplementary Fig. 8A, B and D (mouse)
Experiment: co-IP; co-IP experiments of Supplementary Fig. 8A, B and D; cells or tissue and tags not given

| Molecule | binding |
| --- | --- |
| IFT20 as used in the co-IP experiment of Supplementary Fig. 8D (from UniProt Q61025 1-132) | binds |
| B1 | binds |
